Source: publication PMC6977653
These are yes or no findings as the source states them, for the method shown. Binding seen in cells or lysates may run through a third protein. Some entries that bind do so weakly or less than the wild type. Sequences can lack the tags named with a protein.

The chains behind the UniProt entries cited, without tags or fusion partners.
UniProt P49841: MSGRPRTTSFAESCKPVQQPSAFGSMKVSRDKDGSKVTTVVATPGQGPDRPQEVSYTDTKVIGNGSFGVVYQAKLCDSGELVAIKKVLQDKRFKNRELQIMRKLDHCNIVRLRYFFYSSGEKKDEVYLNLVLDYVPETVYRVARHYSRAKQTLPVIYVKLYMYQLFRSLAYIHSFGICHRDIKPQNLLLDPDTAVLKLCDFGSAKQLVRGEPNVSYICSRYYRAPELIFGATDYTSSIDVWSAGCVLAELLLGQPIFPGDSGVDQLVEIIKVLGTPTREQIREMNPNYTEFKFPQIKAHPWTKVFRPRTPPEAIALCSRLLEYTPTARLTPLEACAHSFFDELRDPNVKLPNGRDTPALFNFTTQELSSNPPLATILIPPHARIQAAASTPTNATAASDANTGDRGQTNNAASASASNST
UniProt O95863: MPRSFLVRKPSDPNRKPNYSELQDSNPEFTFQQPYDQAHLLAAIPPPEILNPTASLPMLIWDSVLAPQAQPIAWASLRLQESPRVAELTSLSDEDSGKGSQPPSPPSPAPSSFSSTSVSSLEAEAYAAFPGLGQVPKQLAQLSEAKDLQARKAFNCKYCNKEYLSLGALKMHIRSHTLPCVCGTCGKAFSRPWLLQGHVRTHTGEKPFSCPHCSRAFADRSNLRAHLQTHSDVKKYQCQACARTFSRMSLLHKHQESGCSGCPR

Target: GSK3β (UniProt P49841)
Experiment: co-IP; HEK293T transfected with GSK3β, FHL3-HA (0, 5, 15 ug plasmid), snail1 and twist1 for 48 h; RIPA lysate; immune magnetic beads (anti-Myc, anti-HA, anti-Flag), 4 °C, 24 h; TBS washing; western blot

| Molecule | binding |
| --- | --- |
| snail1 (from UniProt O95863 1-264) | binds |
| four-and-a-half LIM domains 3 (FHL3), HA-tagged (protein, UniProt Q13643 1-280) MSESFDCAKCNESLYGRKYIQTDSGPYCVPCYDNTFANTCAECQQLIGHDSRELFYEDRHFHEGCFRCCRCQRSLADEPFTCQDSELLCNDCYCSAFSSQCSACGETVMPGSRKLEYGGQTWHEHCFLCSGCEQPLGSRSFVPDKGAHYCVPCYENKFAPRCARCSKTLTQGGVTYRDQPWHRECLVCTGCQTPLAGQQFTSRDEDPYCVACFGELFAPKCSSCKRPIVGLGGGKYVSFEDRHWHHNCFSCARCSTSLVGQGFVPDGDQVLCQGCSQAGP | binds |
